Source: US20150307487

Experiments:
[1] = test system: DGCR8Δ (DGCR8 deletion construct); assay: binding assay; conditions: TR-FRET complex (anti-His6-Tb / streptavidin-XL665), 160 nM RNA, 154.5 nM protein, 5 uM bulk tRNA, 2 mM MgCl2, 2 mM CaCl2, room temperature; purified recombinant protein; protein details: His-tag, expressed in E. coli BL21; label: 5'-biotin
[2] = test system: DGCR8Δ (DGCR8 deletion construct); assay: EMSA; conditions: binds 12, 24 and 60 repeats similarly; 50 mM Tris-HCl pH 8.0, 75 mM NaCl, 37.5 mM KCl, 1 mM MgCl2, 0.1 mg/mL yeast tRNA, room temperature; purified recombinant protein; protein details: His-tag, expressed in E. coli BL21; label: [alpha-32P]-ATP by in vitro transcription

Sequence	binding result [1]	binding result [2]
CGGCGGCGGCGGCGGCGGCGGCGGCGGCGGCGGCGG [5'-biotin-r(CGG)12]	binds	–
CGGCGGCGGCGGCGGCGGCGGCGGCGGCGGCGGCGG [r(CGG)12, 32P-labelled]	–	binds

For at least one entry, the source does not settle the construct or the ends of the probe.
